# Data published in patent US20060052356A1, “Pharmacological methods to modulate oxygen consumption” (priority 2004, published 2006).
# For at least one compound, name, drawing or mass did not settle the structure.
# Tested on: protein synthesis
# Test: 35S-methionine incorporation into tissue protein after i.v. protein synthesis inhibitor in anesthetized rats (Example 3)
# Format: in vivo, Sprague Dawley rats
# Settings: single agents, intravenous
smiles,measurement,value
C[C@H]1c2cccc(O)c2C(=O)C2=C(O)[C@]3(O)C(=O)C(C(N)=O)=C(O)[C@@H](N(C)C)[C@@H]3[C@@H](O)[C@@H]21 [Doxycycline],inhibition of protein synthesis (in words),minimal inhibition
